# Measured values from PMC7819943, “Rice protein-binding microarrays: a tool to detect cis-acting elements near promoter regions in rice”.
# Sequences of proteins named here, by UniProt entry; tags and fusion partners are left off.
# UniProt Q0JBA9, entry or part of it: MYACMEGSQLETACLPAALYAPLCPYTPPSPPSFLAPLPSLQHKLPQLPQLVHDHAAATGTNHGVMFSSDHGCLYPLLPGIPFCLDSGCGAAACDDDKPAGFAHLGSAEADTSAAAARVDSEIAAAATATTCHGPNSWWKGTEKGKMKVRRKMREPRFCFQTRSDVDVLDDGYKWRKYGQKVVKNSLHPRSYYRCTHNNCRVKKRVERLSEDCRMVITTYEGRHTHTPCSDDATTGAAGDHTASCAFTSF
# This is one part of the list.
# Target: OsWRKY34 (Oryza sativa, UniProt Q0JBA9 1-250)
# Assay: protein-binding microarray (RPBM); PBS, 2% BSA, 51.3 ng/ul salmon testes DNA, 50 uM zinc acetate, 200 nM TF, 25 C, 1 h; high values mean tight binding
# Settings: protein: recombinant; tags: N-terminal polyhistidine and DsRed monomer fusion (pET32a); label: CyDye5-dUTP incorporated in the synthesized complementary strand; 3' TTTTT single-stranded linker to array surface; dsDNA, one strand shown
# Method in brief: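 Binding signal here means per-feature fluorescence intensity in arbitrary units. The values were read on an Axon 4000B scanner after a custom Agilent array, double-stranded by primer extension with Cy5-dUTP, was incubated with 200 nM protein at 25 °C for 1 h in PBS with 2% BSA, salmon testes DNA and 50 µM zinc acetate, then washed. The proteins were transcription factors with an N-terminal polyhistidine tag and DsRed, expressed in E. coli BL21-CodonPlus and purified on Ni–NTA.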
row,Sequence,binding signal
1,CCAACTACCTCGCCCAGCCGCACACCGGATTGAGATTCATCGGAGTCACCTAGTGCAG,8190 fluorescence intensity (a.u.)
2,ACATCATTTACCTGTACAAAACATCTCAATTATGCATTGTCGGAGTCACCTAGTGCAG,8840 fluorescence intensity (a.u.)
3,CTACTGCTCTCCCCGAACGCGCTACCGTTGTTGGACCCGACGGAGTCACCTAGTGCAG,9250 fluorescence intensity (a.u.)
4,GTTTTCATATTTTTTTCTCACTGTTGGCACTTACACAATCCGGAGTCACCTAGTGCAG,9420 fluorescence intensity (a.u.)
5,GGAACACTTGTCACATCATTAAGGTTGATGGTTAGCCCGACGGAGTCACCTAGTGCAG,8080 fluorescence intensity (a.u.)
6,GAGCACATACTTTGGTCATTAATGGTGATTATAATGATATCGGAGTCACCTAGTGCAG,8820 fluorescence intensity (a.u.)
7,AGCAATCTTGGCCGTCACTCCACTGCACTCCTATTTATCCCGGAGTCACCTAGTGCAG,10200 fluorescence intensity (a.u.)
8,CTTACACTGCCTTTAACCTCCTTTCTTTCCCTAGGACCTACGGAGTCACCTAGTGCAG,8250 fluorescence intensity (a.u.)
9,GGGATCTACTGCGGCGGTGGGGTCGAGCGAGGGACCGGCGCGGAGTCACCTAGTGCAG,8310 fluorescence intensity (a.u.)
10,CAACCTCGCCGTCCTTCGCTTGCTCACGCGGCCTTCTCCGCGGAGTCACCTAGTGCAG,11000 fluorescence intensity (a.u.)
11,TGGTAGTATTTAGTTTGCCTTTTCTTCACGGTTGGTGTCTCGGAGTCACCTAGTGCAG,8040 fluorescence intensity (a.u.)
12,TGCTGCTCCTACATACTCCCTCCGTTTCGGAATGTTTGACCGGAGTCACCTAGTGCAG,9230 fluorescence intensity (a.u.)
13,GAACTGTCCACGTTACCAGCCCGCATTGAATAACGCTTTGCGGAGTCACCTAGTGCAG,10500 fluorescence intensity (a.u.)
14,AAACTTTTCCCAAACTCTCAACTTTCCATCACATCACATCCGGAGTCACCTAGTGCAG,9200 fluorescence intensity (a.u.)
15,CTTGTCACCGCTGCTAGCTCTTCATTTTGCACTCCAGACTCGGAGTCACCTAGTGCAG,9640 fluorescence intensity (a.u.)
16,GGTGGGCCGGGCTTTGCTTTTGCTTTAAACATTTGCGTGGCGGAGTCACCTAGTGCAG,8680 fluorescence intensity (a.u.)
17,CACAAAAACTTACCTATGTTTTCTTTTGGTTGCTGTGGTTCGGAGTCACCTAGTGCAG,8640 fluorescence intensity (a.u.)
18,ATAGTCTCCTTATAGTACTGGTGTTTTTTTTAAAAAAAATCGGAGTCACCTAGTGCAG,10100 fluorescence intensity (a.u.)
19,CTCGTCTGCGCCTCGCCTCGCCTCGCCTCCACGACCGGTCCGGAGTCACCTAGTGCAG,11600 fluorescence intensity (a.u.)
20,AACAATTATCCACAAATGGACAGACATCATCATCGGTCACCGGAGTCACCTAGTGCAG,9060 fluorescence intensity (a.u.)
21,TGTTGTTGTTTCTTTGCATTTGTATGCCTGCCGTCTGCATCGGAGTCACCTAGTGCAG,14700 fluorescence intensity (a.u.)

# A second format for part of the listing above:
row | Sequence | binding signal
5 | GGAACACTTGTCACATCATTAAGGTTGATGGTTAGCCCGACGGAGTCACCTAGTGCAG | 8080 fluorescence intensity (a.u.)
6 | GAGCACATACTTTGGTCATTAATGGTGATTATAATGATATCGGAGTCACCTAGTGCAG | 8820 fluorescence intensity (a.u.)
7 | AGCAATCTTGGCCGTCACTCCACTGCACTCCTATTTATCCCGGAGTCACCTAGTGCAG | 10200 fluorescence intensity (a.u.)

# Later entries

row,Sequence,binding signal
1,GTTAATAATCCACGTTTTCCGATGCATCCATGACTCATTCCGGAGTCACCTAGTGCAG,11900 fluorescence intensity (a.u.)
2,CACTGCCCATTCGCCACGTCCCCTAACGCTCCAGGTTTATCGGAGTCACCTAGTGCAG,8920 fluorescence intensity (a.u.)
3,TCATTTCGTTCTAGCTCCGCCTCTGCACATGGCGCAACATCGGAGTCACCTAGTGCAG,9000 fluorescence intensity (a.u.)
4,CACCCCAATGCAAAGCCCATTCTGATACTCCTTTTCACCGCGGAGTCACCTAGTGCAG,9380 fluorescence intensity (a.u.)
5,TAGGTGATGATTTCGTGTTTTGGTCCTGTATTTATGTTGGCGGAGTCACCTAGTGCAG,8120 fluorescence intensity (a.u.)
6,CTGCTTTCCCGTTATTTTCTTATTTAGATATAGATTGATTCGGAGTCACCTAGTGCAG,9290 fluorescence intensity (a.u.)
7,GAATCAGCCTTTTCAGTCACCACTTCTTTCTCCTTTCTCTCGGAGTCACCTAGTGCAG,9310 fluorescence intensity (a.u.)
8,TTGGACCTAACCACATCCTTGACCGTCGATTTGTACCCCACGGAGTCACCTAGTGCAG,8690 fluorescence intensity (a.u.)
9,CTCACCATTTTCACTCACTCACTCACACTGAACTCCTATGCGGAGTCACCTAGTGCAG,8360 fluorescence intensity (a.u.)
10,GTTCTGATAGTCTTGGAGGTGTTGTCGTTCCTTGTTGGTACGGAGTCACCTAGTGCAG,8550 fluorescence intensity (a.u.)
11,TCCAGCGATGCCCTAGCCTCCGTTCTCGTACGCACTTTGTCGGAGTCACCTAGTGCAG,8900 fluorescence intensity (a.u.)
12,GCCGCCACCACCACCACCACCACCGTGCCCACGCCATCGCCGGAGTCACCTAGTGCAG,12700 fluorescence intensity (a.u.)
13,AACCTGGAGCACACACTCGCCTCCTTCCATCGCTGATGCACGGAGTCACCTAGTGCAG,8370 fluorescence intensity (a.u.)
14,TGCCGCACCTTGTGACCATTCCCGCCATAATCCTTGAACTCGGAGTCACCTAGTGCAG,9480 fluorescence intensity (a.u.)
15,GAGGTGGGGTGCATTTTCCCTAAATTTTTGAACAGTTTATCGGAGTCACCTAGTGCAG,8820 fluorescence intensity (a.u.)
16,GATTTAAAGTTGTCTTTTTGTGGGTGGGAAATCATTTCCACGGAGTCACCTAGTGCAG,12700 fluorescence intensity (a.u.)
17,TCCCTCCCTCTCTCTCTCTCTGTTTCTCCAGTCTCCACATCGGAGTCACCTAGTGCAG,11200 fluorescence intensity (a.u.)
18,CACCGGCGCCACCTCCACCTGCTCGCTGCGCGCCCAGCCACGGAGTCACCTAGTGCAG,8630 fluorescence intensity (a.u.)
19,AACCATAGTTTATGTTTACTAATGTATTCCTTTCCTATTTCGGAGTCACCTAGTGCAG,8060 fluorescence intensity (a.u.)
20,GGCCGTGTCGGCATCCTCCGCGACATCCTTGTCATTGCTCCGGAGTCACCTAGTGCAG,8200 fluorescence intensity (a.u.)
21,ATTTGCACGGGCACATGAAGATTGTTACTGTTCTCGACTTCGGAGTCACCTAGTGCAG,8710 fluorescence intensity (a.u.)

row,Sequence,binding signal
1,AGCTAGCTAACCTTGGTCTCCCATCTCATGTTAGGTTTATCGGAGTCACCTAGTGCAG,8540 fluorescence intensity (a.u.)
2,TTCTACCTTAGTCAAACACTAAAACTATGCAGTATCTTTTCGGAGTCACCTAGTGCAG,8960 fluorescence intensity (a.u.)
3,GTTGTTTTGCCGATATTTGCGGGTTCATTAATTTTCTTTTCGGAGTCACCTAGTGCAG,9060 fluorescence intensity (a.u.)
4,ATGAGACTGTCATATTGTTACGCTTTATCTTACCAACATTCGGAGTCACCTAGTGCAG,9010 fluorescence intensity (a.u.)
5,CCATTTTCTCTCTCGCTCGGTTTGCTGCTCTCCTCCTCCTCGGAGTCACCTAGTGCAG,9000 fluorescence intensity (a.u.)
6,ACCCATTGCAATGCTTCATCTCCATCACTTGCATCCTTGTCGGAGTCACCTAGTGCAG,9950 fluorescence intensity (a.u.)
7,AGAATTTATATTACTGTGCGAATACTGTTTCCATTTCAAACGGAGTCACCTAGTGCAG,8940 fluorescence intensity (a.u.)
8,ACAACACGCCGCCTCGCCTGCCCATCCCGTCCAACCCACGCGGAGTCACCTAGTGCAG,9200 fluorescence intensity (a.u.)
9,GTCCACAAATTTGGTAGCAACAGAGATCATTTATATATTGCGGAGTCACCTAGTGCAG,8150 fluorescence intensity (a.u.)
10,CTCTCCTCCGCCGCCTCCTCCTCACTAGTGACGACACCACCGGAGTCACCTAGTGCAG,8170 fluorescence intensity (a.u.)
11,GCTCACCACGACTAATCCTAGTGCTATAAGCAGCGACCAACGGAGTCACCTAGTGCAG,8380 fluorescence intensity (a.u.)
12,CCTTAGTCTGGTTGGAGGGAGATTTTCGGCCATGCAAAACCGGAGTCACCTAGTGCAG,8110 fluorescence intensity (a.u.)
13,CAGGTGGGGACCTGTCGGGGAGAGAGGGAGGGGAAAACGGCGGAGTCACCTAGTGCAG,9470 fluorescence intensity (a.u.)
14,CGGACACGGCCTCGTCAGGGTTCTTGCTAGTTCTTGTAGTCGGAGTCACCTAGTGCAG,10000 fluorescence intensity (a.u.)
15,ACCTGAAGTCTCTGCCTTGACATTTACAGGTGCGGTTGAACGGAGTCACCTAGTGCAG,8600 fluorescence intensity (a.u.)
16,GCAAATGGGATCTGCGAGCCTTTCTTTCTTTCCTTCCCTACGGAGTCACCTAGTGCAG,8730 fluorescence intensity (a.u.)
17,TTATTTAGTGTTGCACATAGTGTTATTTATATGTTTCATTCGGAGTCACCTAGTGCAG,8060 fluorescence intensity (a.u.)
18,GCCTGCTTACTTTCTGCCACCTTTATCTTGCCTAAACAGGCGGAGTCACCTAGTGCAG,8980 fluorescence intensity (a.u.)
19,ATTTTACCAGTCTTGGAGATTTTAATCTTGTATAGTTTTCCGGAGTCACCTAGTGCAG,9110 fluorescence intensity (a.u.)
20,GCCATACGATCGGAACGAATTCTATTGGCCGTTTCACTTTCGGAGTCACCTAGTGCAG,8070 fluorescence intensity (a.u.)
21,CTCACCAAGTCATGATCTCTGCGTCGCTTTACAACAAACTCGGAGTCACCTAGTGCAG,9220 fluorescence intensity (a.u.)

# 4 entries drawn at random from the list so far, as already listed:
row,Sequence,binding signal
16,GCAAATGGGATCTGCGAGCCTTTCTTTCTTTCCTTCCCTACGGAGTCACCTAGTGCAG,8730 fluorescence intensity (a.u.)
11,GCTCACCACGACTAATCCTAGTGCTATAAGCAGCGACCAACGGAGTCACCTAGTGCAG,8380 fluorescence intensity (a.u.)
21,CTCACCAAGTCATGATCTCTGCGTCGCTTTACAACAAACTCGGAGTCACCTAGTGCAG,9220 fluorescence intensity (a.u.)
19,ATTTTACCAGTCTTGGAGATTTTAATCTTGTATAGTTTTCCGGAGTCACCTAGTGCAG,9110 fluorescence intensity (a.u.)

# (further entries)

row,Sequence,binding signal
1,TGCATGTCTTATGCATACTCACTACACATATACACATCATCGGAGTCACCTAGTGCAG,8780 fluorescence intensity (a.u.)
2,TCTCTTTTCACCCACCGCACCCATCCAACTTCTCTTCTCTCGGAGTCACCTAGTGCAG,17900 fluorescence intensity (a.u.)
3,CGGGTGGGGATGGGCTGGATCTGGATTGATTGGGAGTGTTCGGAGTCACCTAGTGCAG,15200 fluorescence intensity (a.u.)
4,GAGCCTATAAATAACCATTGTGGATGCCTTCCATGTTGACCGGAGTCACCTAGTGCAG,8640 fluorescence intensity (a.u.)
5,TCTTCCATTACTACTAGTCTACTACTCTCTCGCTCTTTCTCGGAGTCACCTAGTGCAG,9290 fluorescence intensity (a.u.)
6,TTGGTTCATTGTGGTTTTCTAGGCCTTTATAATTTCTTCACGGAGTCACCTAGTGCAG,9460 fluorescence intensity (a.u.)
7,GACCTGATCACCTGAGCCAGTCCACGTACGTACGCCCGACCGGAGTCACCTAGTGCAG,8420 fluorescence intensity (a.u.)
8,ATTTTTGACGCTTCCGCAATGCTTATGTTTTAGAGGAGTTCGGAGTCACCTAGTGCAG,9120 fluorescence intensity (a.u.)
9,GTGAGGACGGCCTGCGGGTGCATGCGGGCGCAACAAGTAGCGGAGTCACCTAGTGCAG,17500 fluorescence intensity (a.u.)
10,TCTCATCGATCTTATAGGTTCATTGTATACGCAACCCAAACGGAGTCACCTAGTGCAG,8610 fluorescence intensity (a.u.)
11,GACTATGCGTCTATGCCCTACGCGGCTACGCCTCGATCACCGGAGTCACCTAGTGCAG,8570 fluorescence intensity (a.u.)
12,TCCCCGTGGCATGGCAGCAATAGATGGGCAGCGGCGTCGGCGGAGTCACCTAGTGCAG,10900 fluorescence intensity (a.u.)
13,TGCGGTTGGCTATAAATCGGTAGCCCGACTGGCTACAAATCGGAGTCACCTAGTGCAG,8820 fluorescence intensity (a.u.)
14,TACTCTCTCTTTTCCATAAAGGTTTCATTTTTGGGTTTTTCGGAGTCACCTAGTGCAG,8390 fluorescence intensity (a.u.)
15,CTCTCTTTCTTTCGATGCTTCGACGAACTTGACTATTTGCCGGAGTCACCTAGTGCAG,8500 fluorescence intensity (a.u.)
16,TATATGTTGTTGTTTTATGAAATTTATTTTTTTTTTAAATCGGAGTCACCTAGTGCAG,8430 fluorescence intensity (a.u.)
17,TTTACCCTTAGCTACATATATATTTGTGTTCGTCCTATCCCGGAGTCACCTAGTGCAG,10200 fluorescence intensity (a.u.)
18,TCTCCATCTGTATGCGTAACCTGACGCCGCCGTCGCCTCCCGGAGTCACCTAGTGCAG,10300 fluorescence intensity (a.u.)
19,ATGTGGTAAAAAAGTGCCATTCACTCTCTTTAATTTTCACCGGAGTCACCTAGTGCAG,8750 fluorescence intensity (a.u.)
20,CCGTCGCCGTCTCCCGCCTCATCAAGCTCTGCGTCCGCCACGGAGTCACCTAGTGCAG,10200 fluorescence intensity (a.u.)
21,AAATGCATATCTATAGCTCGTGTGTTGTGATGGTTGGCTACGGAGTCACCTAGTGCAG,8570 fluorescence intensity (a.u.)
